PubChem BioAssay AID504786, Drosophila RNAi Screening Center – 2011
The screen tested about 21,000 reagents; shown is a random part of those that have a named target and a result. 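Primary screen; positive scores mean lost reporter signal, so the sign may be inverted from the usual convention.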 The numbers tell different reagents against one gene apart. A plus sign joins genes that one reagent is predicted to hit. Reagent sequences are not shown.

Screen: 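Fly genes required for HIF-dependent transcription when hypoxia is mimicked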 (primary screen)
Cell system: Drosophila S2 cells with a stable HIF luciferase reporter
Reagents: long dsRNA against Drosophila genes, about 0.2 µg dsRNA per well of a 384-well plate
Timing: three days of knock-down, then 20 h of DFO before reading
Challenge: desferrioxamine (DFO) at 100 µM, an iron chelator that mimics hypoxia, for 20 h
Read-out: 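HIF reporter luminescence in cells given 100 µM DFO for 20 h, using the mouse ldh-a hypoxia-response element, scored as per-plate z-scores; higher means greater loss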
Scale: z-score: higher = stronger loss of HIF reporter signal

gene knocked down | reagent | z-score, replicate 1 | z-score, replicate 2
NimA | 1 | -0.1 | 0.3
CG10863 | 1 | -0.3 | -0.6
Edg84A | 1 | -0.4 | -0.2
CG32537 | 1 | -0.4 | -0.4
vig2 | 1 | 0 | 0.1
Polr2F | 1 | 4.6 | 5.5
CG6012 | 1 | 0 | -0.2
Golgin104 | 1 | -0.2 | -0.1
side-IV + CG17025 (retired record) | 1 | -0.3 | -0.1
zetaCOP | 1 | -0.1 | 1.2
ATP8B | 1 | -0.4 | -0.3
CG13630 | 1 | -0.2 | -0.1
Or71a | 1 | -0.2 | -0.3
RpL34b | 1 | 0 | 0.4
CG10993 | 1 | -0.3 | 0.4
CG17724 | 1 | -0.3 | 0.2
CG14182 | 1 | -0.3 | 0.1
Rnp4F | 1 | -0.4 | -0.4
CG5846 | 1 | -0.5 | -1.2
bgcn | 1 | -0.3 | -0.4
bgcn | 2 | -0.4 | -0.4
CG10839 | 1 | 0.2 | -0.5
M7BP | 1 | -0.3 | -0.3
Hrs | 1 | -0.1 | 0.2
CG3009 | 1 | -0.2 | -0.1
CG15073 | 1 | -0.2 | 0.3
CG2186 | 1 | -0.1 | 0.4
eIF3f1 | 1 | 5.1 | 5.4
Egfr | 1 | -0.6 | -0.4
Egfr | 2 | -0.3 | -0.5
CG12780 | 1 | -0.3 | -0.3
Ote | 1 | -0.2 | -0.4
ena | 1 | -1 | -0.4
ena | 2 | -0.2 | 0
CG11334 | 1 | 0 | -0.3
CG11334 | 2 | -0.3 | 0.1
Targ1 | 1 | -0.1 | -0.3
grsm | 1 | -0.2 | -0.5
grsm | 2 | -0.2 | -0.5
Bka | 1 | 0.2 | 1.5
trv | 1 | -0.4 | -0.2
trv | 2 | -0.3 | -0.6
trv | 3 | -0.3 | -0.5
trv | 4 | -0.3 | -0.8
Pxt | 1 | -0.2 | 0.2
Sfxn1-3 | 1 | -0.3 | -0.2
nAChRalpha4 | 1 | 0 | 0.5
CG5174 | 1 | -0.2 | -0.1
PGAP2 | 1 | 0.8 | 1.5
RpL35 | 1 | 6.4 | 3.9
CG42715 (retired record) | 1 | 0.1 | 0.1
NimC3 | 1 | -0.4 | -0.6
BG642163 | 1 | -0.2 | -0.2
BG642163 | 2 | -0.3 | -0.3
Arv1 | 1 | -0.4 | -0.2
Ciz1 | 1 | 0.2 | 2.2

Targets listed so far whose gene name begins with E or e:
gene knocked down | reagent | z-score, replicate 1 | z-score, replicate 2
Edg84A | 1 | -0.4 | -0.2
eIF3f1 | 1 | 5.1 | 5.4
Egfr | 1 | -0.6 | -0.4
Egfr | 2 | -0.3 | -0.5
ena | 1 | -1 | -0.4
ena | 2 | -0.2 | 0
